Assay results reported in publication doi:10.1101/2021.10.25.465832.
These are yes or no findings as the source states them, for the method shown. Binding seen in cells or lysates may run through a third protein. A result given as binding can be weak or reduced; the word gives no strength. Sequences can lack the tags named with a protein.

Target: N-domain of PhoP (PhoPN), M-PFC fusion (M. tuberculosis)
Assay: split reporter

B1: SigE (M-PFC fusion, pUAB300-sigE) (protein, UniProt P9WGG7 1-257)
chain: MELLGGPRVGNTESQLCVADGDDLPTYCSANSEDLNITTITTLSPTSMSHPQQVRDDQWVEPSDQLQGTAVFDATGDKATMPSWDELVRQHADRVYRLAYRLSGNQHDAEDLTQETFIRVFRSVQNYQPGTFEGWLHRITTNLFLDMVRRRARIRMEALPEDYDRVPADEPNPEQIYHDARLGPDLQAALASLPPEFRAAVVLCDIEGLSYEEIGATLGVKLGTVRSRIHRGRQALRDYLAAHPEHGECAVHVNPVR
  binding: binds
